{"source": "patent US20260053801A1", "about": "“METHOD FOR TREATING AUTOPHAGY DEPENDENT CANCER WITH A PIKFYVE INHIBITOR” (The Regents of the University of Michigan, priority 2023, published 2026)", "key": {"[1]": {"test_system": "MIA-PaCa-2 human PDAC cell line xenograft", "test": "MIA-PaCa-2 PDAC xenograft (CDX) in SCID mice", "conditions": "in vivo", "procedure": "For xenograft studies, 6-10-week-old CB17 severe combined immunodeficiency (SCID) mice obtained from the University of Michigan breeding colony were used. For syngeneic studies, 6-10-week-old C57BL6 mice obtained from Jackson Laboratories were used. Subcutaneous tumors were established at both sides of the dorsal flank of the mice by injecting 1×10^6 cells in […] of 50:50 Matrigel and serum-free media. Tumors were measured 2-3 times per week using digital calipers following the formula (π/6) (L×W2), where L=length and W=width of the tumor. At the end of the studies, mice were sacrificed, and tumors extracted and weighed.\nTerminal dUTP Nick End Labeling (TUNEL) staining was performed with an In Situ Cell Death Detection Kit (TMR Red #12156792910; Roche Applied Science) following the manufacturer's instructions. Briefly, fixed sections were permeabilized using Triton X-100 followed by PBS washing. The labelling reaction was performed at 37° C. for 1 hour by addition of the reaction buffer containing enzymes. Images were acquired using a Zeiss Axiolmager M1 microscope.\nGiven the enhanced autophagy dependence of PDAC and the urgent need for new therapies, ESK981 was investigated for efficacy in combatting this type of cancer. […]"}, "[2]": {"test_system": "BxPC-3 CDX (non-KRAS driven PDAC)", "test": "BxPC-3 CDX in SCID mice", "conditions": "mouse, in vivo"}, "LTL545 NEPC PDX tumors": {"test_system": "LTL545 NEPC PDX tumors", "test": "LTL545 NEPC PDX model", "conditions": "mouse, in vivo"}}, "note": "“Also recorded” adds a separate entry of the source. At least one structure is not confirmed: it was looked up by name or label, or the drawing left a doubt.", "data": [{"smiles": "CC(C)Cn1c2ccc(Nc3ncccn3)cc2c2c3c(c4c(c21)CCc1nn(C)cc1-4)C(=O)NC3", "note": "[ESK981, 13-isobutyl-4-methyl-10-(pyrimidin-2-ylamino)-1,2,4,7,8,13-hexahydro-6H-indazolo[5,4-a]pyrrolo[3,4-c]carbazol-6-one]", "values": [{"measurement": "Ki67 staining (proliferation)", "setting": "[1]", "result": "drastic reductions; also recorded: reduced the proliferation"}, {"measurement": "cell death measured by TUNEL assays", "setting": "[1]", "result": "increases in cell death"}, {"measurement": "proliferation based on Ki-67 staining", "setting": "[2]", "result": "reduced the proliferation"}, {"measurement": "cell death (TUNEL assays)", "setting": "LTL545 NEPC PDX tumors", "result": "massive cell death"}]}]}
